These results are taken from publication PMC5725494, “Cell cycle-dependent phosphorylation regulates RECQL4 pathway choice and ubiquitination in DNA double-strand break repair”.

Sequences of proteins named here, by UniProt entry; tags and fusion partners are left off.
UniProt Q13619: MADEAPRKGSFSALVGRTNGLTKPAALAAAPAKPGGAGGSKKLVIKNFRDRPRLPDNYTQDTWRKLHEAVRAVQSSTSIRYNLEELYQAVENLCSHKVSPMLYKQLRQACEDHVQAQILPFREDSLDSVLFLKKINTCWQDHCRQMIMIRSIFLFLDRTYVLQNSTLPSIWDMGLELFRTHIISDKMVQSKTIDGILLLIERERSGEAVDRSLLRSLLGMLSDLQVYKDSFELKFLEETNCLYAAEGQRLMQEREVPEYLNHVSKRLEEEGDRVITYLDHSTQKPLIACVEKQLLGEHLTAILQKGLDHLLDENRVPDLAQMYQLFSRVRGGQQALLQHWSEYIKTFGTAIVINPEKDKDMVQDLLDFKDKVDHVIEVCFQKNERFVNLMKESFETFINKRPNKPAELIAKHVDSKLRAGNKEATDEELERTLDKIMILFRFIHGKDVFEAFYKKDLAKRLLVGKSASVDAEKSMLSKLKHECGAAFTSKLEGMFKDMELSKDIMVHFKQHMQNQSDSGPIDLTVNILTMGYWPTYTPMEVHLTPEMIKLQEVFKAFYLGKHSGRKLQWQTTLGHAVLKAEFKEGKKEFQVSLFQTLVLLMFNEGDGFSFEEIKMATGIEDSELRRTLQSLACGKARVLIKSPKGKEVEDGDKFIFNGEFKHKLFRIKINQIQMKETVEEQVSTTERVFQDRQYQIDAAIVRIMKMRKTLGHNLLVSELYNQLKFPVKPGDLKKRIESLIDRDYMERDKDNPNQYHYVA

Results are given in words; binding and its absence hold for the method and conditions named. In cells and extracts the contact can be indirect. Some binding calls cover weakened binding; strength is not graded here. For part of these data: Sequences can lack the tags named with a protein.

The target in assay [1] is T1, 3×FLAG-tagged RECQL4 (wild type, full length) (human) (UniProt O94761).
T1 sequence: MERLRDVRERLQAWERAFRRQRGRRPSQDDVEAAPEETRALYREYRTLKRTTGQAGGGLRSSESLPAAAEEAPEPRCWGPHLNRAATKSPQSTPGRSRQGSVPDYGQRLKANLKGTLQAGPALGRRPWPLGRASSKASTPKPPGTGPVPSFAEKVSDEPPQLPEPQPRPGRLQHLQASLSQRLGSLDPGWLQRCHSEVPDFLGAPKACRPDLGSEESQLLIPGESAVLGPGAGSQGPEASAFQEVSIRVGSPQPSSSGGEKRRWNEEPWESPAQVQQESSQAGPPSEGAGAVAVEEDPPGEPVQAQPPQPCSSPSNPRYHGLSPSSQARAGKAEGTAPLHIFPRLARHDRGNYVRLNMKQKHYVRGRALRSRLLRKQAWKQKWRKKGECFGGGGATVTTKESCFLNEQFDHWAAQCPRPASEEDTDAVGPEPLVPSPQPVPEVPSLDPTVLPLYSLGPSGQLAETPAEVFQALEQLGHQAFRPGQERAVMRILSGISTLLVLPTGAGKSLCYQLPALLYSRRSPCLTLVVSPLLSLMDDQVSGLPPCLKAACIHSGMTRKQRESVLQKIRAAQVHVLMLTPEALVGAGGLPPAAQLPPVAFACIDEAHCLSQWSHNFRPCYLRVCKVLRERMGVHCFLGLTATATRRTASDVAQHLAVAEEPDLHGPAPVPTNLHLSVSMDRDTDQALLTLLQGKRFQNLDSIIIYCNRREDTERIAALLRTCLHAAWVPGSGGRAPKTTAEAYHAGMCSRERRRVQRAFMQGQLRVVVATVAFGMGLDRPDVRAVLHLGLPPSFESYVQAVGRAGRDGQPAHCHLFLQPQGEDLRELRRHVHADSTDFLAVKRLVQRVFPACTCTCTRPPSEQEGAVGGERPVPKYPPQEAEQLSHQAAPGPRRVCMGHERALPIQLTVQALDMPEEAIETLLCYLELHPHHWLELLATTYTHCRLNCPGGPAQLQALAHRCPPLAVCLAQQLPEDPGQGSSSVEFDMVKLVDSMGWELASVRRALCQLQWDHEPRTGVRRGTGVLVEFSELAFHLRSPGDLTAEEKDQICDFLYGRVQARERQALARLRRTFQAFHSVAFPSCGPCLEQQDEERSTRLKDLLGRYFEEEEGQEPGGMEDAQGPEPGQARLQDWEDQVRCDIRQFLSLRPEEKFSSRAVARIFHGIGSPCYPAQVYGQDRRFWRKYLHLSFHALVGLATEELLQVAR
Put plainly: co-IP; M2 FLAG beads on lysate (2 mg protein) of HEK293T cells expressing 3×FLAG-tagged RECQL4, mutants or truncations, overnight at 4 °C; lysis buffer 2 with Benzonase; Western blotting of endogenous partners.

The target of assay [2] is T2, GFP-tagged RECQL4 (wild type) (human) (UniProt O94761).
T2 sequence: T1 sequence
The assay is described as follows: co-IP; GFP-TRAP beads on lysate (2 mg protein) of HEK293T cells expressing GFP-tagged RECQL4 or mutants, overnight at 4 °C; lysis buffer 2 (40 mM Tris-HCl pH 7.4, 100 mM NaCl, 2 mM MgCl2, 0.2% NP-40, 0.3% Triton) with Benzonase; cells irradiated with 10 Gy; asynchronous, or synchronised in G1 with aphidicolin and released 10 h for S/G2; Western blotting. A general note: Immunoblotting shows a protein as a band on a membrane.

The target in assay [3] is T3, MRE11 (endogenous, U2OS) (human (endogenous in U2OS)) (UniProt P49959).
T3 sequence: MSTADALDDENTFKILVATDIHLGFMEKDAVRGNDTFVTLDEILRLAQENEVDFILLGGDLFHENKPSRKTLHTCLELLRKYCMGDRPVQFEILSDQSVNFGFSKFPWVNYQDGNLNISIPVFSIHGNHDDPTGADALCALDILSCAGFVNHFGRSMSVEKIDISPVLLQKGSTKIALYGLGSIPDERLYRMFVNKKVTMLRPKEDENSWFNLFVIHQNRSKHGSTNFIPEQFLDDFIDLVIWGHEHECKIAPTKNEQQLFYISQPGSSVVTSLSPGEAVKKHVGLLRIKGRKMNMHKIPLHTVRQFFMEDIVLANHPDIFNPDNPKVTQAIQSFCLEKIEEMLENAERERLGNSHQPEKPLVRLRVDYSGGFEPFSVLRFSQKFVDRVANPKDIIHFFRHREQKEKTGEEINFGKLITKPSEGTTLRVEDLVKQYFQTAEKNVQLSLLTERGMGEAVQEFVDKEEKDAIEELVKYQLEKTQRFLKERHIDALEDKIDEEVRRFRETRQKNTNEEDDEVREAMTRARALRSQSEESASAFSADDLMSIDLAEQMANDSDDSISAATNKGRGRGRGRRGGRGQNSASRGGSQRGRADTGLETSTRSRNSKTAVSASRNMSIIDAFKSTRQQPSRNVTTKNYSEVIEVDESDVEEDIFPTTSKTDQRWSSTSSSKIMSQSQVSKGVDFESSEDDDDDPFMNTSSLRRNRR
The assay is described as follows: co-IP; anti-MRE11 antibody or normal mouse IgG with protein A/G agarose on U2OS lysate (lysis buffer 2); cells pretreated with CDK1 and CDK2 inhibitors or DMSO, irradiated with 10 Gy, IP 5 min after irradiation.

As to CUL4A (from UniProt Q13619 1-759), the binding entry in assay [1] was “binds”.
Consider “MRE11–RAD50–NBS1 complex (MRN) (from UniProt P49959 1-708; Q92878 1-1312; O60934 1-754)”, for which, in assay [2], the binding entry was “binds”.

B1: RECQL4 (endogenous, U2OS) (protein, UniProt O94761 1-1208)
chain: T1 sequence
In the case of B1, in assay [3], the binding result is listed as “binds”.
